From publication PMC8989545

Experiments:
[1] = target: human serum albumin (HSA) (Homo sapiens) (UniProt P02768); assay: flow cytometry on HSA-coated beads; details: 5 mM Mg2+, 'rarely binds to HSA'; cells: DPBS, 4.5 g/L glucose, 5 mM MgCl2, 0.1 mg/ml yeast tRNA, 1 mg/ml BSA, 4 C, 30 min; pH not stated; commercial protein; label: FAM; single-stranded DNA
[2] = target: human serum albumin (HSA) (Homo sapiens) (UniProt P02768); assay: flow cytometry; details: significantly weaker than SYL3C-F20; cells: DPBS, 4.5 g/L glucose, 5 mM MgCl2, 0.1 mg/ml yeast tRNA, 1 mg/ml BSA, 4 C, 30 min; pH not stated; commercial …; label: Cy5; single-stranded DNA

Sequence | binding result [1] | binding result [2]
ATCTAACTGCTGCGCCGCCGGGAAAATACTGTACGGTTAGA [Sgc8] | binds more weakly | –
CACTACAGAGGTTGCGTCTGTCCCACGTTGTCATGGGGGGTTGGCCTG [SYL3C] | – | binds more weakly

For at least one entry, the source does not settle the construct or the ends of the probe. A weaker result is weaker than the reference pair of the same experiment.
